The results in this text go back to the supplement of paper PMC4604168 (melanoma cell lines).

The other results are listed elsewhere or left out. Many values rest on one well or one pass, so single values are uncertain.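 Cells were imaged in 1,536-well plates, and nuclei stained with an antibody against cleaved PARP were counted against all DNA-stained nuclei to give the apoptosis fraction. Screening doses were chosen to leave most cells alive, and resting and induced cleaved-PARP levels differ strongly between cell lines.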

This assay relates to SkMel28. The assay is described as follows: cleaved PARP positive nuclei fraction relative to DMSO control; melanoma cells; higher = more apoptosis. The following applies: library dose: low library concentration; 72 h.
Take `C=C(c1ccc(C(=O)O)cc1)c1cc2c(cc1C)C(C)(C)CCC2(C)C` [Bexarotene] + CC(C)(C)c1cnc(CSc2cnc(NC(=O)C3CCNCC3)s2)o1 [SNS-032] (first compound 2 µM, partner dose 0.01 µM): the “cleaved PARP positive nuclei fraction” value turned out to be 77.7%.
The value for `Cc1cc(Nc2cc(N3CCN(C)CC3)nc(/C=C/c3ccccc3)n2)n[nH]1` + COc1cc(N2CCC(N3CCN(C)CC3)CC2)ccc1Nc1ncc(Cl)c(Nc2ccccc2S(=O)(=O)C(C)C)n1 [NVP-TAE684] (first compound 0.04 µM, partner dose 0.08 µM) was 87.8%.
In the case of `O=C(O)c1ccc2c(c1)nc(Nc1cccc(Cl)c1)c1ccncc12` + Oc1nc(-c2ccc(C(F)(F)F)cc2)nc2c1CSCC2 [XAV939] (first compound 0.4 µM, partner dose 2 µM), the “cleaved PARP positive nuclei fraction” value came out at 160%.
In the case of `Nc1ccn([C@@H]2O[C@H](CO)[C@@H](O)C2(F)F)c(=O)n1` [gemcitabine] + COC(=O)c1sccc1S(=O)(=O)Nc1ccc(Nc2ccccc2)cc1OC [GSK0660] (first compound 0.0004 µM, partner dose 1 µM), the “cleaved PARP positive nuclei fraction” value turned out to be 75.7%.
Take `CNC(=O)c1cc(Oc2ccc(NC(=O)Nc3ccc(Cl)c(C(F)(F)F)c3)cc2)ccn1` [sorafenib] + CC(C)(C)c1cnc(CSc2cnc(NC(=O)C3CCNCC3)s2)o1 [SNS-032] (first compound 0.4 µM, partner dose 0.01 µM): the “cleaved PARP positive nuclei fraction” value came out at 29.8%.
With `Nc1ccn([C@@H]2O[C@H](CO)[C@@H](O)C2(F)F)c(=O)n1` [gemcitabine] + OCCn1cc(-c2cnc3nnn(Cc4ccc5ncccc5c4)c3n2)cn1 [PF04217903] (first compound 0.0004 µM, partner dose 1 µM), the “cleaved PARP positive nuclei fraction” value is 60.3%.
For the compound `C=C(c1ccc(C(=O)O)cc1)c1cc2c(cc1C)C(C)(C)CCC2(C)C` [Bexarotene] + Cc1ccc(NC(=O)c2cccc(N(C)C)c2)cc1NC(=O)c1ccc(O)cc1 [ZM336372] (first compound 2 µM, partner dose 2 µM), the “cleaved PARP positive nuclei fraction” value is 53.8%.
In the case of `Nc1nc(F)nc2c1ncn2[C@@H]1O[C@H](CO)[C@@H](O)[C@@H]1O` [fludarabine] + C=CCn1c(=O)c2cnc(Nc3ccc(N4CCN(C)CC4)cc3)nc2n1-c1cccc(C(C)(C)O)n1 [MK1775] (first compound 0.2 µM, partner dose 0.02 µM), the “cleaved PARP positive nuclei fraction” value is 201%.
The value for `Cc1cc(Nc2cc(N3CCN(C)CC3)nc(/C=C/c3ccccc3)n2)n[nH]1` + Cn1cc(/C=C2\C(=O)Nc3cccnc32)c2ccccc21 [GW441756] (first compound 0.04 µM, partner dose 0.4 µM) was 106%; that for `CC(C)C[C@H](NC(=O)[C@H](Cc1ccccc1)NC(=O)c1cnccn1)B(O)O` [Bortezomib] + c1cc(-c2cnn3cc(-c4ccc(OCCN5CCCCC5)cc4)cnc23)ccn1 [Dorsomorphin] (first compound 0.001 µM, partner dose 0.4 µM) was 87.7%.
As to `Nc1ncn([C@H]2C[C@H](O)[C@@H](CO)O2)c(=O)n1` [decitabine] + Cc1cc([N+](=O)[O-])ccc1NS(=O)(=O)c1cc(Cl)ccc1Cl [FH535] (first compound 0.1 µM, partner dose 1 µM), the “cleaved PARP positive nuclei fraction” value turned out to be 199%.
On to `Nc1ncn([C@H]2C[C@H](O)[C@@H](CO)O2)c(=O)n1` [decitabine] + O=C(Nc1cccc(Cl)c1)Nc1ncc(CCNc2ncnc3ccsc23)s1 [SNS314] (first compound 0.1 µM, partner dose 0.0008 µM), for which the “cleaved PARP positive nuclei fraction” value came to 90%.
On to `CS(=O)(=O)CCNCc1ccc(-c2ccc3ncnc(Nc4ccc(OCc5cccc(F)c5)c(Cl)c4)c3c2)o1` [lapatinib] + COc1ccc2c(c1)CCC1C2CCC2(C)C(NCCCCCCN3C(=O)C=CC3=O)CCC12 [U73122] (first compound 0.8 µM, partner dose 0.4 µM), for which the “cleaved PARP positive nuclei fraction” value was found to be 180%.
Consider `Cc1cc(Nc2cc(N3CCN(C)CC3)nc(/C=C/c3ccccc3)n2)n[nH]1` + CCCCCCCCCCCC1=C(O)C(=O)C=C(O)C1=O [Embelin] (first compound 0.04 µM, partner dose 1.2 µM), for which the “cleaved PARP positive nuclei fraction” value is 145%.
Take `C[C@@H](Oc1cc(-c2cnn(C3CCNCC3)c2)cnc1N)c1c(Cl)ccc(F)c1Cl` [Crizotinib] + Cc1cc([N+](=O)[O-])ccc1NS(=O)(=O)c1cc(Cl)ccc1Cl [FH535] (first compound 0.2 µM, partner dose 1 µM): the “cleaved PARP positive nuclei fraction” value amounted to 74.7%.
